Experimental data from PMC10927582.
No constants are given. Whether binding was seen depends on the method and setting. For part of these data: Binding calls can cover weak binding; strength is not graded here. For part of these data: In cells and extracts the contact can be indirect. For part of these data: Tags and fused reporters may be left off the sequences shown.

By UniProt entry, the sequences of proteins in these tests, tags left out. Where a name states a change or a piece, a line headed by the entry shows the natural chain unless it says otherwise. Residues count along the entry.
UniProt Q3ZCQ8, residues 45-353: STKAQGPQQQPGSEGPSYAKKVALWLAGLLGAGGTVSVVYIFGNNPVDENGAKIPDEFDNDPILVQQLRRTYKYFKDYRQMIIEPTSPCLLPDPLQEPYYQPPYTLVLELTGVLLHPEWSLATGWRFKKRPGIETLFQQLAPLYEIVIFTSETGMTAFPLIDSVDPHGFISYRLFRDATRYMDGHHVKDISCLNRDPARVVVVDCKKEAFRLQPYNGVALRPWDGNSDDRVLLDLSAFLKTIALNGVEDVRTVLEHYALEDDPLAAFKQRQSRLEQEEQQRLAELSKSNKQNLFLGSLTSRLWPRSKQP
UniProt Q9NS69: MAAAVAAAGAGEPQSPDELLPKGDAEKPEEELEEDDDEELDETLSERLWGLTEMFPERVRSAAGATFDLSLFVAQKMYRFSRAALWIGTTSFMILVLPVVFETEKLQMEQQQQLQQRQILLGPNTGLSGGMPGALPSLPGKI
UniProt Q9BXM7: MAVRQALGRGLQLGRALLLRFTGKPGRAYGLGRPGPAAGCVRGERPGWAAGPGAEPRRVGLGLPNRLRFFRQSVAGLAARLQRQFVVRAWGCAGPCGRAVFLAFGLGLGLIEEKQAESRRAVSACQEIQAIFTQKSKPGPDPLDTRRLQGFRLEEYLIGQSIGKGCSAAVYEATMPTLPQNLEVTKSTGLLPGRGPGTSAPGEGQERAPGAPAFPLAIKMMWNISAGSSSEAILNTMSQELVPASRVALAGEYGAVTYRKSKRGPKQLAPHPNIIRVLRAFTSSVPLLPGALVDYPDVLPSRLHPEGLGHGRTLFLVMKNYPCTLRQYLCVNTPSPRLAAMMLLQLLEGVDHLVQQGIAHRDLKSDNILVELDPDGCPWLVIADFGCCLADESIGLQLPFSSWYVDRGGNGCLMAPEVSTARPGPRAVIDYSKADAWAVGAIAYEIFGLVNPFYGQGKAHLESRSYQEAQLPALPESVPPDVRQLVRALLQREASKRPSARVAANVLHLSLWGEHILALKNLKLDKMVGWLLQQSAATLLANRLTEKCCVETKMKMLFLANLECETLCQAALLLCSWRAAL

Legend:
[1] = molecular target: T1, Tim23-FLAG (UniProt O14925); assay: co-IP; FLAG immunocapture from isolated mitochondria of HEK293T cells transfected with Tim50-FLAG or Tim23-FLAG; 20 µM CCCP 4 h; elution with FLAG peptide; immunoblot
T1 sequence: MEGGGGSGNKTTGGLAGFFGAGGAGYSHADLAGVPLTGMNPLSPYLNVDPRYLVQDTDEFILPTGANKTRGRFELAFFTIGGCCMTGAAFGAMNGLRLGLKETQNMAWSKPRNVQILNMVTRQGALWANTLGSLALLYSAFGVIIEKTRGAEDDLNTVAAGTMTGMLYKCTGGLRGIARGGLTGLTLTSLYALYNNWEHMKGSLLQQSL

[2] = molecular target: Tim50-FLAG (UniProt Q3ZCQ8); assay: as above
[3] = molecular target: Tim50-FLAG (UniProt Q3ZCQ8); assay: co-IP; FLAG immunocapture from isolated mitochondria of WT U2OS cells transfected with Tom22-FLAG or Tim50-FLAG; 20 µM CCCP or DMSO 4 h; elution with FLAG peptides; immunoblot
[4] = molecular target: Tom22-FLAG (UniProt Q9NS69); assay: as above
[5] = molecular target: PINK1-HA L540K (human) (UniProt Q9BXM7); assay: co-IP; HA immunocapture (anti-HA magnetic beads) from isolated mitochondria of U2OS PINK1 KO cells transfected with PINK1-HA (WT or mutants); 20 µM CCCP 4 h or ΔOTC for 36 h; elution with HA peptide, 0.2% digitonin; immunoblot
[6] = molecular target: PINK1-HA A536E (human) (UniProt Q9BXM7); assay: as above
[7] = molecular target: PINK1-HA I131E (human) (UniProt Q9BXM7); assay: as above
[8] = molecular target: pCMV(d1)TNT PINK1(WT)-3HA (human) (UniProt Q9BXM7); assay: native gel or EMSA; BN-PAGE of 1% digitonin-solubilised mitochondria and immunoblot; U2OS PINK1 KO cells transfected with PINK1-HA (WT or mutants), 20 µM CCCP 4 h or ΔOTC expression; comigration at 720 kDa
[9] = molecular target: Tim50-FLAG (UniProt Q3ZCQ8); assay: co-IP; Tim50-FLAG immunopurification in the presence of the Tom20-binding deficient PINK1 mutants (SI Appendix, Fig. S9)
[10] = molecular target: pCMV(d1)TNT PINK1(WT)-3HA (human) (UniProt Q9BXM7); assay: co-IP; HA immunocapture (anti-HA magnetic beads) from isolated mitochondria of U2OS PINK1 KO cells transfected with PINK1-HA (WT or mutants); 20 µM CCCP 4 h or ΔOTC for 36 h; elution with HA peptide, 0.2% digitonin; immunoblot

PTEN-induced putative kinase 1 (PINK1), endogenous (from UniProt Q9BXM7)
binding [1]: binds | binding [2]: binds | binding [3]: binds | binding [4]: binds

Tim50 subunit of the TIM23 complex, endogenous (from UniProt Q3ZCQ8 45-353)
binding [5]: no binding | binding [6]: no binding | binding [7]: no binding | binding [8]: binds

PINK1-HA L540K (from UniProt Q9BXM7)
binding [9]: no binding

Tom22 subunit of the TOM complex, endogenous (from UniProt Q9NS69 1-142)
binding [10]: binds

PINK1-HA A536E (from UniProt Q9BXM7)
binding [9]: no binding

PINK1-HA I131E (from UniProt Q9BXM7)
binding [9]: no binding

B1: Tom40 subunit of the TOM complex, endogenous (protein, UniProt O96008 1-361)
chain: MGNVLAASSPPAGPPPPPAPALVGLPPPPPSPPGFTLPPLGGSLGAGTSTSRSSERTPGAATASASGAAEDGACGCLPNPGTFEECHRKCKELFPIQMEGVKLTVNKGLSNHFQVNHTVALSTIGESNYHFGVTYVGTKQLSPTEAFPVLVGDMDNSGSLNAQVIHQLGPGLRSKMAIQTQQSKFVNWQVDGEYRGSDFTAAVTLGNPDVLVGSGILVAHYLQSITPCLALGGELVYHRRPGEEGTVMSLAGKYTLNNWLATVTLGQAGMHATYYHKASDQLQVGVEFEASTRMQDTSVSFGYQLDLPKANLLFKGSVDSNWIVGATLEKKLPPLPLTLALGAFLNHRKNKFQCGFGLTIG
binding [5]: no binding | binding [10]: binds | binding [6]: no binding | binding [7]: no binding

B2: Tim23 subunit of the TIM23 complex, endogenous (protein, UniProt O14925 1-209)
chain: MEGGGGSGNKTTGGLAGFFGAGGAGYSHADLAGVPLTGMNPLSPYLNVDPRYLVQDTDEFILPTGANKTRGRFELAFFTIGGCCMTGAAFGAMNGLRLGLKETQNMAWSKPRNVQILNMVTRQGALWANTLGSLALLYSAFGVIIEKTRGAEDDLNTVAAGTMTGMLYKCTGGLRGIARGGLTGLTLTSLYALYNNWEHMKGSLLQQSL
binding [5]: no binding | binding [6]: no binding | binding [7]: no binding | binding [8]: binds

B3: Tim22 subunit of the TIM22 translocase, endogenous (protein, UniProt Q9Y584 1-194)
chain: MAAAAPNAGGSAPETAGSAEAPLQYSLLLQYLVGDKRQPRLLEPGSLGGIPSPAKSEEQKMIEKAMESCAFKAALACVGGFVLGGAFGVFTAGIDTNVGFDPKDPYRTPTAKEVLKDMGQRGMSYAKNFAIVGAMFSCTECLIESYRGTSDWKNSVISGCITGGAIGFRAGLKAGAIGCGGFAAFSAAIDYYLR
binding [8]: no binding
